# Measured values reported in PMC7819943, “Rice protein-binding microarrays: a tool to detect cis-acting elements near promoter regions in rice”.
# Protein sequences, listed by entry. Tags and fused reporters are not part of them.
# UniProt Q0JBA9, entry or part of it: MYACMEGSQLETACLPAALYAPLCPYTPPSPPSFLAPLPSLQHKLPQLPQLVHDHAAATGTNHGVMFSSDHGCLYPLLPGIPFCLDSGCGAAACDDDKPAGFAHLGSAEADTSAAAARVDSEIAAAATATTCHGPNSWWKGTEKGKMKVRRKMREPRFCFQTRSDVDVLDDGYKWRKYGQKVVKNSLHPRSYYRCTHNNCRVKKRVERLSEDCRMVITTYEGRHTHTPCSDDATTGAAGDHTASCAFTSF
# The other results are listed elsewhere or left out.
# Target: OsWRKY34 (Oryza sativa, UniProt Q0JBA9 1-250)
# Experiment: protein-binding microarray (RPBM); PBS, 2% BSA, 51.3 ng/ul salmon testes DNA, 50 uM zinc acetate, 200 nM TF, 25 C, 1 h; high values mean tight binding
# Details: protein: recombinant; tags: N-terminal polyhistidine and DsRed monomer fusion (pET32a); label: CyDye5-dUTP incorporated in the synthesized complementary strand; 3' TTTTT single-stranded linker to array surface; dsDNA, one strand shown
# In short: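 Transcription factors were made in E. coli BL21-CodonPlus as N-terminal fusions to a polyhistidine tag and DsRed, then purified on Ni–NTA. After primer extension with Cy5-dUTP and blocking with 2% BSA, a custom Agilent array was exposed for 1 h at 25 °C to 200 nM protein in PBS, 2% BSA, salmon testes DNA and 50 µM zinc acetate. Washed arrays were scanned on an Axon 4000B, and the binding signal is per-feature fluorescence intensity in arbitrary units.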
row,Sequence,binding signal
1,CATCCAATTCCTGTGTTTTTCCTGTGGTTCAATCAAACGGCGGAGTCACCTAGTGCAG,11400 fluorescence intensity (a.u.)
2,CTCCCTCTGTTTCAAAATATTTGACACTGTTGACTTTTTACGGAGTCACCTAGTGCAG,11000 fluorescence intensity (a.u.)
3,AGGTCTAGCCGGCATAGCTTTGGATCATATTTATTTCTTACGGAGTCACCTAGTGCAG,8050 fluorescence intensity (a.u.)
4,ACATGTGGAGGGAACAGGGCGTGGAATCAAGGGTCGGGATCGGAGTCACCTAGTGCAG,8290 fluorescence intensity (a.u.)
5,GGCGCGTTGTAGGCAGGGGTGGCGTTGCGATGCAGTCGGCCGGAGTCACCTAGTGCAG,8480 fluorescence intensity (a.u.)
6,TCCCCATCTGCCTCTTTACTCTCCTTCCCACCCCTCTATGCGGAGTCACCTAGTGCAG,8720 fluorescence intensity (a.u.)
7,GTACCCTACTCTTATACTCCTCTATACAAATACAACTACACGGAGTCACCTAGTGCAG,8370 fluorescence intensity (a.u.)
8,AGCTCGTGTTAATTGTTAAAATTTCCTCACCAGTTTGCAACGGAGTCACCTAGTGCAG,8350 fluorescence intensity (a.u.)
9,CCATCCTCACCGTCGTCGCTGCCGCGCGTCCCTTCCCCTCCGGAGTCACCTAGTGCAG,8160 fluorescence intensity (a.u.)
10,CCAGATTTGCTCCTTCTTTCATTGATCTTTACATCAAATTCGGAGTCACCTAGTGCAG,9620 fluorescence intensity (a.u.)
11,CAGATTTTTAGCCACTGGATGAGCTTCATGATTCGTGCTCCGGAGTCACCTAGTGCAG,8100 fluorescence intensity (a.u.)
12,AATAGGGCAAGCACTTTTCATAGTATATATTTATCTTTTTCGGAGTCACCTAGTGCAG,8110 fluorescence intensity (a.u.)
13,CCCGTCGTTGTCCACCCCGTCCCATTCCACGACCGTCGTCCGGAGTCACCTAGTGCAG,12000 fluorescence intensity (a.u.)
14,CGATCACTTCACCTAACTCGATCGCTTAATTTCCAGCAACCGGAGTCACCTAGTGCAG,8720 fluorescence intensity (a.u.)
15,GTGGGAGTGGCGGTGTCGGGTCCGGAACGAAACGGCGGGGCGGAGTCACCTAGTGCAG,10300 fluorescence intensity (a.u.)
16,TATTTGCCCTGCTCTCACCCGGCTCCTGATCTCCTCGTCCCGGAGTCACCTAGTGCAG,9420 fluorescence intensity (a.u.)
17,GCTCTAACACACCTTCATCATGCATGCATATGTGCTATTTCGGAGTCACCTAGTGCAG,8080 fluorescence intensity (a.u.)
18,GTTTTTGGGACGGAGGGAGTATTTGTTTGTGTTTGAATTGCGGAGTCACCTAGTGCAG,9560 fluorescence intensity (a.u.)
19,GGAGAGAGAGATTAGGGGTAGGGTAGTAAAAATATATATGCGGAGTCACCTAGTGCAG,11100 fluorescence intensity (a.u.)
20,TCACTGGCCTTTATTTTGTGGCGGCTCCAAATTCCGCCAGCGGAGTCACCTAGTGCAG,8580 fluorescence intensity (a.u.)
21,TCTCTTTTACCTCAATCTCGTATATACCCTGGTACCGACGCGGAGTCACCTAGTGCAG,11400 fluorescence intensity (a.u.)

# 2 records picked at random from the list so far, as already listed:
row,Sequence,binding signal
5,GGCGCGTTGTAGGCAGGGGTGGCGTTGCGATGCAGTCGGCCGGAGTCACCTAGTGCAG,8480 fluorescence intensity (a.u.)
12,AATAGGGCAAGCACTTTTCATAGTATATATTTATCTTTTTCGGAGTCACCTAGTGCAG,8110 fluorescence intensity (a.u.)

# Next part

row,Sequence,binding signal
1,TCAGCTATCATAGTCTTCTAGAATGCTCTTCTTGTCAGATCGGAGTCACCTAGTGCAG,8220 fluorescence intensity (a.u.)
2,AAGTTGGGTTTCGGATCTTGGAAGGTTAGGAGATACAGTACGGAGTCACCTAGTGCAG,9660 fluorescence intensity (a.u.)
3,CACAGTGCACATATATAAATGCACCCCACTTATTGCTCTCCGGAGTCACCTAGTGCAG,8440 fluorescence intensity (a.u.)
4,ATGAATATGCGAGCCCATAAAGCACCATGTCTTCTTCTCGCGGAGTCACCTAGTGCAG,8400 fluorescence intensity (a.u.)
5,AGAACTGGTTTCTTGTAGCTTGATTGTGTTGTTACTCCTGCGGAGTCACCTAGTGCAG,8440 fluorescence intensity (a.u.)
6,ATGTTGCCACTTTCATATGTCGAACAATTAGTACTTATATCGGAGTCACCTAGTGCAG,9290 fluorescence intensity (a.u.)
7,CGCTGAGTCGAACGGCACTGTCATTTATTTTTTTTTAGTTCGGAGTCACCTAGTGCAG,9360 fluorescence intensity (a.u.)
8,CTAAACCGCTTCCTAACCACATAGTTAATTGTATATATGCCGGAGTCACCTAGTGCAG,8670 fluorescence intensity (a.u.)
9,TTCGTTTGCACTTGCATCCACGTCGTTCGGTAAATTTTTTCGGAGTCACCTAGTGCAG,9350 fluorescence intensity (a.u.)
10,TTTCACCGCTCTCTCTCTCTCTCTCTCTCTCTCTCTCTCTCGGAGTCACCTAGTGCAG,8290 fluorescence intensity (a.u.)
11,TTGGGGTTAACCTGGTCTGAATCGGTGATGTGGGAGGGGACGGAGTCACCTAGTGCAG,13000 fluorescence intensity (a.u.)
12,ATCTTGAGAGGTCACAGATATCCTGATCCTGCTGTTTTTTCGGAGTCACCTAGTGCAG,8300 fluorescence intensity (a.u.)
13,CACCATCTATCACTTGCTCTACCAACGCCGATTTTTACTGCGGAGTCACCTAGTGCAG,12200 fluorescence intensity (a.u.)
14,GTATTCGCAGCCATCCGTCCATCCGTGTCAGCGTCACTCACGGAGTCACCTAGTGCAG,10200 fluorescence intensity (a.u.)
15,GCATCCTCCTAATCCACCCACAGAGCAACCGGTATGTTCTCGGAGTCACCTAGTGCAG,8900 fluorescence intensity (a.u.)
16,GTCTTTTTCTCAACTCCAAACTTCAACTTTCTTGTTTTTCCGGAGTCACCTAGTGCAG,8550 fluorescence intensity (a.u.)
17,GACTATATTCATCAAATTTCACTCGATTTGTACATTTTTACGGAGTCACCTAGTGCAG,9110 fluorescence intensity (a.u.)
18,CCCCAATGCATTTCTCTCTCTACCTGCGTGTTTGACTGCACGGAGTCACCTAGTGCAG,11300 fluorescence intensity (a.u.)
19,AACGATTTCTTCAGCATTTTCCATCCCCGCGGCTTCTTCTCGGAGTCACCTAGTGCAG,8230 fluorescence intensity (a.u.)
20,TTCTTCGTTTTTCTGAGTACGATCTCCCAGGGTTATAATCCGGAGTCACCTAGTGCAG,8850 fluorescence intensity (a.u.)
21,TTCAGTCTGCCACACTGTCGTTTTTTTGCTTTCATGGTTTCGGAGTCACCTAGTGCAG,8900 fluorescence intensity (a.u.)
